Test results reported in patent US20090041784A1.
These are yes or no findings as the source states them, for the method shown. Some binding calls cover weakened binding; strength is not graded here.

Sequences of proteins named here, by UniProt entry; tags and fusion partners are left off. A change or cut given only in a name is not applied to a line headed by its entry.
UniProt P47871: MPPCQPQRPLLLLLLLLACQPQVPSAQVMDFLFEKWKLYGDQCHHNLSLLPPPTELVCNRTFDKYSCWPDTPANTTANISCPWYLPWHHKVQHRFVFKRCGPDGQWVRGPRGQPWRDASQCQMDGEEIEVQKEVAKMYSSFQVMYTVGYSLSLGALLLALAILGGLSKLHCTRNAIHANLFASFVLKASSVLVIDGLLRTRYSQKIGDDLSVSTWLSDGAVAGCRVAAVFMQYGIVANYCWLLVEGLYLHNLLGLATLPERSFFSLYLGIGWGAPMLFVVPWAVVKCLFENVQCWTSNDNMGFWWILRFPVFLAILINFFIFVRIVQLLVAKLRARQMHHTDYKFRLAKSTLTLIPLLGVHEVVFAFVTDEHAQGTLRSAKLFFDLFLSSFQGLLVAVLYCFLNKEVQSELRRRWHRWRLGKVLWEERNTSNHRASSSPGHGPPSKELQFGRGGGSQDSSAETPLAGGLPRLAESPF

Target: human glucagon receptor (human) (UniProt P47871)
Assay: competition with 1 nM Alexa-labeled A-3 for human GCGR on CHO cells, FMAT

- binding: binds
B1: antibody A-7 (antibody, V domains shown)
VH: QVQLVESGGGVVQPGRSLRLSCAASGFTFSSYDMHWVRQAPGKGLEWVAVISHDGSDKYYADSVKGRFTISRDNSKNTLYLQMSSLRAEDTAVYYCAREKPYYDILTGYFYYYGMDVWGQGTTVTVSS
VL: DIQMTQSPSSLSASVGDRVTVTCRASQDIRNDFGWYQQKPGKAPKRLIYAASSLQSGVPSRFSGSGSGTEFTLTISSLQPEDFATYYCLQQNSYPLTFGGGTKVEIK
